Data published in PMC5007379.
These are yes or no findings as the source states them, for the method shown. In cells and extracts the contact can be indirect. Here binding means that the protein was enriched with, or labelled near, the bait; the list need not be complete.

The chains behind the UniProt entries cited, without tags or fusion partners.
UniProt Q5VTR2: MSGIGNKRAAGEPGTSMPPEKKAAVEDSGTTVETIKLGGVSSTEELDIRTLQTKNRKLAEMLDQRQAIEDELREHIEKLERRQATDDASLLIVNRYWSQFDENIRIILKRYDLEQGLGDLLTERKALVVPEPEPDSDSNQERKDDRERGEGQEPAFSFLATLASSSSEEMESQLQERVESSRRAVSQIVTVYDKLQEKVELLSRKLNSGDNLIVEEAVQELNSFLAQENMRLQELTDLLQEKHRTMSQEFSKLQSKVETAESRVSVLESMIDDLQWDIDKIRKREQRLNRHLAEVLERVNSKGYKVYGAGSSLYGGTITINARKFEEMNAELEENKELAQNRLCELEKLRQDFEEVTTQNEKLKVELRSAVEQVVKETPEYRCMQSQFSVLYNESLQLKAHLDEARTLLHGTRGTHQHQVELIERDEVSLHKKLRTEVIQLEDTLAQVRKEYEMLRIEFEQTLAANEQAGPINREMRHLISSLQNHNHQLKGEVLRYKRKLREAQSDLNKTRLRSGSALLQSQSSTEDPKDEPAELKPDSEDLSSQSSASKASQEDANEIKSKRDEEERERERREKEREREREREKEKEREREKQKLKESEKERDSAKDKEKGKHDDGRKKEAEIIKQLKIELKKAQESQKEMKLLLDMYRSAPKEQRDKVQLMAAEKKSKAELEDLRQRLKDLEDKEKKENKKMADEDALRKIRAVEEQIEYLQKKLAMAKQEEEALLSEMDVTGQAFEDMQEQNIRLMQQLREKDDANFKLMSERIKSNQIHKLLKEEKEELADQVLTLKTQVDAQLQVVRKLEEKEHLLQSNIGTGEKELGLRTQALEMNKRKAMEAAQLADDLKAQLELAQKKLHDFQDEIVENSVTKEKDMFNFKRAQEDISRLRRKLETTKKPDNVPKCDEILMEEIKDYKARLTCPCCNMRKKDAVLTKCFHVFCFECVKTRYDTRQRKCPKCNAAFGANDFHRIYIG
UniProt P52732: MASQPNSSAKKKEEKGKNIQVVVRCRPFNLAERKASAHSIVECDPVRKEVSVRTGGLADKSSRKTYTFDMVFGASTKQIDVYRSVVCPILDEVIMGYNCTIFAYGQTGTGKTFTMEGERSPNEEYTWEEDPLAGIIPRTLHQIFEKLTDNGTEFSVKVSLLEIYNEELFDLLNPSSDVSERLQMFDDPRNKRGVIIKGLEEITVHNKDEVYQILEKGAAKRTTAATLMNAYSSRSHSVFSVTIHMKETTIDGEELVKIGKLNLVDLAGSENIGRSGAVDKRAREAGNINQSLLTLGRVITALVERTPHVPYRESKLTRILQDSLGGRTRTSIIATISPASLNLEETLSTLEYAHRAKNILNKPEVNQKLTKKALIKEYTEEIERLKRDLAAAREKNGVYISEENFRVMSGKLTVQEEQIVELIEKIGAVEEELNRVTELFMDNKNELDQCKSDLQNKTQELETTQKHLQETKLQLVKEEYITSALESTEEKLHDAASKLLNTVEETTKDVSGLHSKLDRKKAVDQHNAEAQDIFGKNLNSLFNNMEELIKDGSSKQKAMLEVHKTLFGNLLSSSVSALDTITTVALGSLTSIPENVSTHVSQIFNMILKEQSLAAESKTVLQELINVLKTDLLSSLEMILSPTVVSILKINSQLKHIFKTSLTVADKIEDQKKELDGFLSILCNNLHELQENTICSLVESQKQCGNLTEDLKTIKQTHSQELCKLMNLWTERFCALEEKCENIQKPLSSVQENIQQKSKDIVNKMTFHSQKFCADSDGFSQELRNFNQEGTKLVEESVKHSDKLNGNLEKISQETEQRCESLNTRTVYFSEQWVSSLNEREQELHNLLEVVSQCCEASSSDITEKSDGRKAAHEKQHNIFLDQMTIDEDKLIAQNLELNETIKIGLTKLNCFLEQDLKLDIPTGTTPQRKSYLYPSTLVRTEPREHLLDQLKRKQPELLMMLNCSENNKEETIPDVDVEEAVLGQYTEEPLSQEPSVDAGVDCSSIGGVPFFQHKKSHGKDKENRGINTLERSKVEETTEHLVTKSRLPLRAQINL

B1: WAC (endogenous) (protein, UniProt Q9BTA9 1-647)
chain: MVMYARKQQRLSDGCHDRRGDSQPYQALKYSSKSHPSSGDHRHEKMRDAGDPSPPNKMLRRSDSPENKYSDSTGHSKAKNVHTHRVRERDGGTSYSPQENSHNHSALHSSNSHSSNPSNNPSKTSDAPYDSADDWSEHISSSGKKYYYNCRTEVSQWEKPKEWLEREQRQKEANKMAVNSFPKDRDYRREVMQATATSGFASGMEDKHSSDASSLLPQNILSQTSRHNDRDYRLPRAETHSSSTPVQHPIKPVVHPTATPSTVPSSPFTLQSDHQPKKSFDANGASTLSKLPTPTSSVPAQKTERKESTSGDKPVSHSCTTPSTSSASGLNPTSAPPTSASAVPVSPVPQSPIPPLLQDPNLLRQLLPALQATLQLNNSNVDISKINEVLTAAVTQASLQSIIHKFLTAGPSAFNITSLISQAAQLSTQAQPSNQSPMSLTSDASSPRSYVSPRISTPQTNTVPIKPLISTPPVSSQPKVSTPVVKQGPVSQSATQQPVTADKQQGHEPVSPRSLQRSSSQRSPSPGPNHTSNSSNASNATVVPQNSSARSTCSLTPALAAHFSENLIKHVQGWPADHAEKQASRLREEAHNMGTIHMSEICTELKNLRSLVRVCEIQATLREQRILFLRQQIKELEKLKNQNSFMV

Biological target: FLAG-RNF20 (UniProt Q5VTR2)
Assay: affinity purification with mass spectrometry; cellular extracts of HeLa cells stably expressing FLAG-RNF20 on anti-FLAG affinity columns, eluted with FLAG peptides; eluates resolved by SDS-PAGE, silver-stained, bands analysed by mass spectrometry

Molecule | binding
Eg5 (endogenous) (from UniProt P52732 1-1056) | binds
B1 | binds
